Here are results for 15 substances from patent US6031073A (La Jolla Pharmaceutical Company, priority 1997, dated 2000).

Plain letter strings leave the end groups untold. HELM strings list residues between dots; [ac] is acetyl, [am] amide, other brackets name non-standard units.

This data set in a line: general procedure: Fmoc solid-phase peptide synthesis; (Fmoc)-Gly-Wang resin; MBHA resin; Rink amide MBHA resin; DIC/HOBt. To be noted: for cyclisation yield / final HPLC purity: cyclisation step; for crude HPLC purity: whole synthesis, analytical RP-HPLC (TFA system and TEAP system).
Where [1] appears, read: TEAP system, thioether ring, run 1.
The mark [2] stands for this setting: TFA system, thioether ring, run 1.
Where [3] appears, read: thioether ring, sequence written open.
[4] abbreviates: TEAP system, thioether ring, sequence written open.
The mark [5] stands for this setting: TFA system, thioether ring, sequence written open.

Take (Fmoc)AGPHsLGVLGKLCPG: the cyclisation yield is recorded as 19%. The “final HPLC purity” value (TEAP system) is reported as 94.0%. For the setting “TFA system”, the “final HPLC purity” value came to 97.0%.

For AGPHsLGVLGKLCPG, where the note is “TFA system”, the “final HPLC purity” value worked out at 100%. Further, the cyclisation yield by setting is: (run 1) 33%; (run 2) 94%.

For the substance GPCLGVLGKLHsPG [2G3-METE], the “final HPLC purity” value stood at 84.4% (TEAP system, thioether ring) and 85.3% (TFA system, thioether ring). Moreover, the cyclisation yield (thioether ring) worked out at 36%.

For the substance GPSLGVLGKLHcPG [d-2G3-METE], the “final HPLC purity” value is recorded as 91.6% under setting [1] and 98.4% under setting [2]. Further, the cyclisation yield (thioether ring, run 1) is recorded as 16%.

In the case of GPSLGVLGKLHcPG [l-2G3-METE], the “final HPLC purity” value under setting [1] was 84.4% and the “final HPLC purity” value under setting [2] came out at 85.3%. For the setting “thioether ring, run 1”, this substance returned a cyclisation yield of 29%.

As to GPSLILAPDRC, the cyclisation yield under setting [3] came to 27%.

HsHNLGQLC: the “crude HPLC purity” value was 57.2%.

In the case of HsLGVLGKLC, the cyclisation yield came out at 51%. Moreover, where the note is “TEAP system”, the “final HPLC purity” value is 94.4%. Moreover, the “final HPLC purity” value (TFA system) is recorded as 92.8%.

Take HsLGVLGKLHc: the cyclisation yield turned out to be 48%. Moreover, the “final HPLC purity” value (TEAP system) is listed as 98.0%. For the same substance, the “final HPLC purity” value (TFA system) is 97.1%.

HsLRSLGEMC: the “crude HPLC purity” value came to 34.8%.

Consider HsYGTLGKLC, for which the “crude HPLC purity” value amounted to 71.6%.

The substance “PEPTIDE1{G.P.[Abu4yl].L.G.V.L.G.K.L.C.P.G}$PEPTIDE1,PEPTIDE1,3:R3-11:R3$$$V2.0” displayed a cyclisation yield of 84%. The “final HPLC purity” value (TFA system) came out at 100%.

Substance “PEPTIDE1{G.P.[Abu4yl].L.G.V.L.G.K.L.[Hc].P.G}$PEPTIDE1,PEPTIDE1,3:R3-11:R3$$$V2.0” yielded a cyclisation yield of 75%.

Consider SLGVLGKLC, for which the “final HPLC purity” value is, setting by setting: under setting [4], 97.6%; under setting [5], 97.1%. The cyclisation yield under setting [3] is recorded as 49%.

For the substance SLGVLGKLHc, the “final HPLC purity” value reads like this: under setting [4], 93.4%; under setting [5], 94.8%. This substance also returned a cyclisation yield under setting [3] of 52%.
